Values quoted from earlier work in patent EP4599821A1, “CANNABIDIOL-COMPRISING LIPOSOMES” (Novozymatic BV, priority 2024, dated 2025).

Conditions: oral, expected; cited from earlier work

In the case of `C=C(C)[C@@H]1CCC(C)=C[C@H]1c1c(O)cc(CCCCC)cc1O` [CBD, cannabidiol], the “bioavailability following administration with food” value is given as 14-25%.
